The text below walks through data of US7038020.

Chains of the proteins cited; added tags and fusions are not shown. Residues count along the entry.
UniProt Q02161, residues 2-417: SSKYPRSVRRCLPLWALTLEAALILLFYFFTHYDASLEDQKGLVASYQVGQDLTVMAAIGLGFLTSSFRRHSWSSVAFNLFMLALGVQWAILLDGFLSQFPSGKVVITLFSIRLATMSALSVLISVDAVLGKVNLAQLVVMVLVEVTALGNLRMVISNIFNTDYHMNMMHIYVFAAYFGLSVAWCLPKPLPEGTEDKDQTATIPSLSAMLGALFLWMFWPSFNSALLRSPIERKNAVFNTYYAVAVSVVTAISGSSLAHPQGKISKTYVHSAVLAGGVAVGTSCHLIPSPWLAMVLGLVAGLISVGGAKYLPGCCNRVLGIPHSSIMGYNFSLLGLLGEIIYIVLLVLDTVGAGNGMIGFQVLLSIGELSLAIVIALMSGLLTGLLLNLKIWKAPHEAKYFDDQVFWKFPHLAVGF

These are yes or no findings as the source states them, for the method shown. Some entries that bind do so weakly or less than the wild type.

This experiment addresses Rhesus D antigen (human) (UniProt Q02161). Briefly: haemagglutination, rbc.

B1: Fab clone LD2-1 (Fab, V domains shown)
VH: QVKLLESGGGVVQPGGSLRLSCVASGFTLRSYGMHWVRQAPGKGLEWVAFIWFDGSNKGYVDSVKGRFTISRDNSKNMVYLQMNSLRADDTAVYYCAREKALRGISRYNYYLDVWGKGTTVTVSS
VL: VVTQPPSASGTPGQRVTISCSGSNSILGSKYVYWYQKLPGTAPKLLIYKNDQRPSGVSDRFSGSKSGTSASLAISGLRSEDEADYYCAPWDANLGGPVFGGGTKLTVL
On to B1, for which the binding entry is recorded as “binds”.
